The exact form of at least one protein or probe is not confirmed. Where cells or extracts were used, other partners may take part. For some assays here: A negative result means that nothing was seen under these conditions. Tags and fusion partners may be left off the protein sequences shown.
How the values were obtained:
GATA-2 [1] = biological target: T1, GATA-2 (UniProt P23769); experiment: competition with a labelled probe; settings: 100-fold molar excess unlabeled mutant vs FITC wild-type probe, did not affect binding; EMSA with 3 ug nuclear extract; pH and temperature not given (as described previously); protein in a lysate after overexpression; protein details: Myc-His vector (pcDNA(-)/Myc-His, printed Mys-His); label: none (unlabeled competitor)
T1 sequence (looked up, limits assumed): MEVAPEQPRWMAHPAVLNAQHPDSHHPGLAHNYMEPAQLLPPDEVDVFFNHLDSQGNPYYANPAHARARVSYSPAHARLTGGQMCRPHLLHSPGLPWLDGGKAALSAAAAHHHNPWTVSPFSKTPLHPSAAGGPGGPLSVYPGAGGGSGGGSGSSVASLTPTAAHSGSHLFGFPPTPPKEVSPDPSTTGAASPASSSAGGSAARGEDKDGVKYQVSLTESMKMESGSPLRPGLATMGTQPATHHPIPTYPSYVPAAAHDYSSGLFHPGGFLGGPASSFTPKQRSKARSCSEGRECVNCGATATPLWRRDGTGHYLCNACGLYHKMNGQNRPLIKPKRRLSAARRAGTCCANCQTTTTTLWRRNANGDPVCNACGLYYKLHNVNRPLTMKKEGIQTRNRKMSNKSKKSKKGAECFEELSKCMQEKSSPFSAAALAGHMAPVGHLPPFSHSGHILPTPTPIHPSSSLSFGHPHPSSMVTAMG

GATA-2 [2] = biological target: T1, GATA-2; experiment: EMSA; settings: K562 nuclear extract, 3 ug, band increases with GATA-2 overexpression, reduced by 100-fold unlabeled wild-type oligo; EMSA with 3 ug nuclear extract; pH and temperature not given (as described previously); protein in a lysate after overexpression; protein details: Myc-His vector (pcDNA(-)/Myc-His, printed Mys-His); label: FITC (probe), unlabeled as competitor

Sequence | binding result (GATA-2 [1]) | binding result (GATA-2 [2])
GATTTCCTAAACGGGAATC (double strand) [HOXB4 promoter GATA mutated] | no binding | 
GATTTCCTTATCCGGGAATC (double strand) [HOXB4 promoter GATA -160/-157 wild-type] |  | binds

From publication PMC3454409
